{
  "source": "patent EP1455919B1",
  "about": "“IODINE EXTRACTION METHOD” (Commissariat à l'Énergie Atomique et aux Énergies …, priority 2001, dated 2003)",
  "assay": "Iodine transport through a microporous polypropylene membrane impregnated with the organic solvent (supported liquid membrane)",
  "format": "physicochemical",
  "key": {"[1]": {"conditions": "Example 7, after 6 h, HNO3 3 mol/L, iodine 1500 kBq/L, soude 10^-1 mol/L, % of initial iodine"}, "[2]": {"conditions": "Example 8, after 1 h, acide iodhydrique 10^-3 mol/L added, soude 0,44 mol/L"}, "[3]": {"conditions": "Example 8, after 2 h, acide iodhydrique 10^-3 mol/L added, soude 0,44 mol/L"}},
  "data": [
    {"smiles": "CCCCCCOc1ccccc1[N+](=O)[O-]", "note": "[1,2-NPHE, 1,2-nitrophénylhexyléther]", "values": [
      {"measurement": "iode extrait de la solution d'acide nitrique", "setting": "[1]", "result": "> 80", "unit": "%"},
      {"measurement": "iode réextrait vers la solution de soude", "setting": "[1]", "result": "> 80", "unit": "%"},
      {"measurement": "iode extrait de la solution d'acide nitrique", "setting": "[2]", "result": 95, "unit": "%"},
      {"measurement": "iode réextrait vers la solution de soude", "setting": "[2]", "result": "~95", "unit": "%"},
      {"measurement": "iode extrait", "setting": "[3]", "result": "> 99", "unit": "%"},
      {"measurement": "iode réextrait", "setting": "[3]", "result": "> 99", "unit": "%"}
    ]}
  ]
}
